Results are given in words; binding and its absence hold for the method and conditions named. In cells and extracts the contact can be indirect. These calls come from enrichment with a bait or labelling near it, and not all partners need be listed.
These substances were tested against T1, un-acetylated N-terminal H2B.Z peptide, biotinylated (Toxoplasma gondii) (assay: affinity purification with mass spectrometry; biotinylated H2B.Z N-terminal peptides (acetylated or un-acetylated) as bait; nuclear extract (NE-PER kit) of extracellular RH tachyzoites; short SDS-PAGE, in-gel trypsin digestion, LC-MS/MS; two independent pull-downs for each peptide; only the target purified).
T1 sequence (peptide, biotin on the C-terminal lysine, K(Biotin)): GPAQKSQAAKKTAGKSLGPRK
With “RNA recognition motif (RRM)-containing protein (TGME49_262620)” the binding was “binds”.
For “acetyl-CoA carboxylase ACC1 (TGME49_221320) (from UniProt S8FE00) (enzyme)”, the binding was “binds”.
For clathrin, the binding was “binds”.
